Measured values as given in PubChem BioAssay AID651640 (Broad Institute, 2012).
Among all 350,000 compounds or so, about 6,000 (1.7%) were called active. Inconclusive results, whose numbers are uncertain, are shown with a selection of clear calls. Rule as the data show it: active = CPE inhibition above about 20% (passing the limit was not always enough); inconclusive = no clear call, values can overlap the other calls; tested in BHK-21 cells.

Test: protection of cells from dengue 2 killing – plate reader, single concentration, primary screen (AID 651640);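 also: 0% = median of neutral control wells and 100% = median of positive control wells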
Settings: DENV2-infected cells, cytopathic effect rescue, at 9.99 µM, stronger effect = higher value

Structure (SMILES)	CPE inhibition
COc1cccc(/C=C2/Sc3ccc(C(=O)NCCCN4CCCC4)cc3NC2=O)c1	inconclusive: 22.9%
Nc1c(NCCN2CCCCC2)c2ccccc2oc1=O	inconclusive: 23%
CCCn1c(=O)c(C(=O)NNS(=O)(=O)c2ccc(C)cc2)c(O)c2ccccc21	active: 35.2%
N#Cc1ccc(-c2ccc3c(c2)[C@@H]2[C@@H](CCN2S(=O)(=O)c2cccc(F)c2)[C@H](CO)N3)cc1	active: 34.1%
O=[N+]([O-])c1ccc(-n2cc(-c3ccccc3)nn2)cc1	inconclusive: 38.9%
S=c1[nH]nc(SCc2ccccc2)c2[nH]cnc12	inactive: 2.71%
COc1ccccc1C(=O)Nc1ccc(OC(C)C(=O)N2CCOCC2)cc1 (stereo not drawn)	inconclusive: 24.1%
Cc1ccccc1Cn1c(O)c(N=NC(=S)Nc2ccccc2F)c2ccccc21	inconclusive: 39.3%
C[C@H]1CN([C@@H](C)CO)C(=O)Cc2cc(NC(=O)C3CCCCC3)ccc2O[C@H]1CN(C)Cc1ccc(Cl)c(Cl)c1	inconclusive: 21.7%
O=C(Nc1ccccc1)N1C[C@@H]2[C@H](c3ccccc31)[C@@H](CO)N2Cc1ccccc1	active: 45.3%
COc1ccc(CN(C)C[C@H]2OCCCC[C@H](C)Oc3ccc(NC(=O)Nc4ccc(OC)cc4)cc3C(=O)N([C@@H](C)CO)C[C@@H]2C)cc1	inconclusive: 24.1%
CC1(C(=O)NS(=O)(=O)c2cccc(Cl)c2)CCN1C(=O)COc1ccc(Cl)cc1 (stereo not drawn)	active: 85.5%
C[C@@H]1CN([C@@H](C)CO)C(=O)c2cc(NS(=O)(=O)c3ccc(F)cc3)ccc2O[C@@H]1CN(C)C(=O)Nc1ccccc1	active: 36.2%
Cc1noc(C)c1NC(=O)Nc1ccc2c(c1)C(=O)N([C@@H](C)CO)C[C@H](C)[C@H](CN(C)C(=O)Nc1c(C)noc1C)O2	inconclusive: 40.2%
Cc1cc(C(=O)Cn2nc(C(=O)O)c3ccccc3c2=O)c(C)n1CC(F)(F)F	inconclusive: 23.5%
COc1ccc(NC(=O)CC(=O)Nc2ccc(OC)cc2)cc1	inconclusive: 26.1%
O=c1c(Cl)cc(Cl)nn1-c1ccccc1	inconclusive: 55.3%
C[C@@H]1CN([C@@H](C)CO)C(=O)c2cc(NS(=O)(=O)c3ccccc3)ccc2O[C@@H](C)CCCCO[C@H]1CN(C)C	inconclusive: 33%
O=C(Cn1nc(-c2ccccc2)ccc1=O)Nc1ccc(NC(=O)c2ccccn2)cc1	inactive: 8.24%
CCCNC(=O)N(C)C[C@@H]1Oc2ncc(-c3ccncc3)cc2C(=O)N([C@@H](C)CO)C[C@@H]1C	inactive: 2.07%
C[C@H](CO)N1C[C@H](C)[C@H](CN(C)Cc2ccncc2)Oc2c(NS(=O)(=O)c3ccc(Cl)cc3)cccc2C1=O	inconclusive: 56.1%
C[C@H]1CN([C@@H](C)CO)C(=O)Cc2cc(NC(=O)C3CCCCC3)ccc2O[C@@H]1CN(C)Cc1ccc(C(=O)Nc2ccccc2N)cc1	inactive: 14.4%
C[C@@H]1CCCCO[C@@H](CN(C)Cc2ccc(Cl)c(Cl)c2)[C@@H](C)CN([C@H](C)CO)C(=O)c2cc(NC(=O)NC3CCCCC3)ccc2O1	inactive: -3.94%
COc1cccc(Nc2ccc([N+](=O)[O-])c3nonc23)c1	inconclusive: 21.5%
Cc1ccc2nc(-c3ccc(C#N)cc3)c(Cc3ccccc3C(F)(F)F)n2c1	active: 63%

Structure (SMILES)	CPE inhibition
O=C(C1CC1)N1CC(=O)N2[C@H](C1)[C@@H](c1ccc(C#CCc3ccccc3)cc1)[C@@H]2CO	inactive: 8.97%
CN1C(=O)/C(=N\OC(=O)c2ccccc2Cl)c2ccccc21	inconclusive: 26.3%
CO[C@H]1CN(C)C(=O)c2cc(NS(=O)(=O)c3ccc(C)cc3)ccc2OC[C@H](C)N(C(=O)NC(C)C)C[C@@H]1C	inconclusive: 25.6%
CSc1ccccc1C(=O)Nc1cccc([N+](=O)[O-])c1	inconclusive: 31.1%
O=C(Cc1cccc(NC(=O)C2CCN(C(=O)C3CCCC3)CC2)c1)Nc1cccc(C(=O)N2CCCCC2)c1	active: 43.2%
COCC(=O)N(C[C@@H]1N[C@@H](CO)[C@@H]1c1ccc(C2=CCCC2)cc1)C(C)C	inconclusive: 72.7%
C[C@@H]1CCCCO[C@H](CN(C)CC2CCCCC2)[C@H](C)CN([C@@H](C)CO)C(=O)c2cc(NC(=O)c3ccncc3)ccc2O1	inconclusive: 21.1%
Cc1ccc(S(=O)(=O)N(C)C)cc1NC(=O)COC(=O)CC1CCCC1	inconclusive: 52.4%
COc1cc(C2NC(=O)NC(C)=C2C(=O)OC2CCCC(C)C2)cc(Br)c1O (stereo not drawn)	active: 45.8%
Nc1cc(C(=O)N2CCN(c3ccccc3Cl)CC2)ccc1N1CC2CC(C1)c1cccc(=O)n1C2 (stereo not drawn)	inconclusive: 20.7%
O=C(NC(=S)N1CCN(c2ccccc2)CC1)c1ccco1	inconclusive: 21.1%
Clc1nssc1=Nc1nncs1	inconclusive: 78.4%
COCCNC(=O)C[C@@H]1CC[C@H](NC(=O)NC2CCCC2)[C@@H](CO)O1	active: 21.6%
O=C(O)CCNC(=O)c1ccc(NC(=O)C(c2ccccc2)c2ccccc2)cc1	inactive: -6.17%
O=C(C1CCCCC1)N1CC2(C1)[C@@H](c1ccccc1)[C@@H](CO)N2Cc1nccs1	active: 27.9%
CC(=O)Nc1cccc(Nc2cc(C)nn2C)c1	active: 73%
Cc1ccc(S(=O)(=O)N2C3CCCCC3O[C@H]2CC(=O)c2cccs2)cc1 (stereo partly drawn)	active: 47.7%
CCOC(=O)C1=C[C@@H](CC)N(S(=O)(=O)c2ccc(C)cc2)[C@H]1c1cccc(Cl)c1	inactive: -3.82%
CN1C(=O)c2cc(NC(=O)c3ccc(F)cc3)ccc2OC[C@H]2O[C@H](CC(=O)O)CC[C@H]21	active: 35.4%
C[C@H]1CN([C@@H](C)CO)S(=O)(=O)c2ccc(C#CC3CCCC3)cc2O[C@H]1CN(C)C	active: 32%
C[C@@H]1CN([C@@H](C)CO)C(=O)c2cc(-c3cccc(F)c3)cnc2O[C@@H]1CN(C)C	inactive: 7.25%
CN1c2ccc(-c3cccc(F)c3)cc2[C@@H]2[C@@H](CCN2C(=O)CC2CC2)[C@@H]1CO	inconclusive: 26.7%
C[C@H](CO)N1C[C@H](C)[C@H](CN(C)C)Oc2cc(-c3cccc(C(=O)N(C)C)c3)ccc2S1(=O)=O	inactive: 3.02%
O=C(OCC(=O)N(CCc1ccccc1)Cc1ccccc1)c1cccc(O)c1	inconclusive: 20.1%
O=C(CN1CCCC1)Nc1ccc(Br)cc1[N+](=O)[O-]	inconclusive: 25.9%

Structure (SMILES)	CPE inhibition
CC(=O)Nc1cccc(Nc2nc(-c3ccccc3F)nc3ccccc23)c1	inactive: 1.32%
N#Cc1ccccc1COC(=O)c1ccc(Br)o1	inconclusive: 32.1%
O=C(C[C@@H]1CC[C@@H](NC(=O)c2cnccn2)[C@H](CO)O1)NCc1ccccc1F	inconclusive: 26%
COc1ccc(S(=O)(=O)Nc2cccc3c2O[C@H](CN(C)S(C)(=O)=O)[C@H](C)CN([C@@H](C)CO)C3=O)cc1	inconclusive: 46.7%
C[C@@H]1CN([C@H](C)CO)C(=O)c2cc(NC(=O)Nc3ccc4c(c3)OCO4)ccc2O[C@H]1CN(C)Cc1ccc(Oc2ccccc2)cc1	inactive: 0.588%
CC(C)CNC(=O)c1ccccc1N(Cc1ccccc1)S(C)(=O)=O	inconclusive: 34.9%
S=c1[nH]nc(Nc2ccc(Cl)cc2)s1	inconclusive: 37.1%
Cc1ccnc2nc(C(=O)OCC(=O)N(CC(C)C)C3CCS(=O)(=O)C3)nn12 (stereo not drawn)	inconclusive: 60.5%
C[C@@H]1CN([C@H](C)CO)C(=O)c2cc(NS(=O)(=O)c3ccc(Cl)cc3)ccc2O[C@@H](C)CCCCO[C@@H]1CN(C)C	inconclusive: 40.6%
COc1ccc(N2CCN(C(=O)c3ccc(CNc4c(N5CCOCC5)c(=O)c4=O)cc3)CC2)cc1	inconclusive: 54.7%
COc1ccc2c3c(n(C)c2c1)[C@H](CO)N(S(C)(=O)=O)CC31CCN(C(=O)c2ccccn2)CC1	active: 77.3%
COC(=O)CSc1ncnc2scc(-c3ccccc3)c12	inconclusive: 31%
CCCC#Cc1cnc2c(c1)C(=O)N([C@H](C)CO)C[C@H](C)[C@H](CN(C)C(=O)Nc1ccc(OC)cc1)O2	inactive: 4.38%
O=C(C1=C[C@H](c2ccc(C(F)(F)F)cc2)C[C@H](OCCCCO)O1)N1CCCCCCC1	inconclusive: 22.6%
CC1(c2ccc3ccccc3c2)NC(=O)N(CC(=O)N2CCCC(C(F)(F)F)C2)C1=O (stereo not drawn)	inconclusive: 54.1%
CCN1CCN(C(=O)C2CCN(S(=O)(=O)c3cc(Cl)ccc3Cl)CC2)CC1	inconclusive: 34.7%
COc1ccc(CN(C)C[C@H]2Oc3c(NS(=O)(=O)c4ccccc4)cccc3C(=O)N([C@@H](C)CO)C[C@@H]2C)cc1	inactive: 14%
CCN1CCN(c2ccc(S(=O)(=O)N3CCCCC3)cc2NC(=O)/C=C/c2ccc(F)cc2)CC1	inconclusive: 50.3%
COc1ccccc1CNC(=O)C(=O)NCC1OCCCN1S(=O)(=O)c1cccs1 (stereo not drawn)	inconclusive: 25%
C[C@@H]1CCCCO[C@@H](CN(C)S(C)(=O)=O)[C@H](C)CN([C@@H](C)CO)C(=O)c2cc(NC(=O)CCCN(C)C)ccc2O1	inconclusive: 26.6%
N#C/C(=N\Nc1ccc(S(=O)(=O)N2CCCCC2)cc1)C(N)=S	inconclusive: 35.6%
COc1ccc(S(=O)(=O)N2CCC3(CC2)CN(Cc2ccncc2)[C@H](CO)c2[nH]c4cc(OC)ccc4c23)cc1	inactive: -8.83%
O=C(COC(=O)c1cnccn1)c1ccc(Cl)cc1	inactive: 12.5%

Among those listed so far, these have a furan ring, fused or not:
Structure (SMILES)	CPE inhibition
O=C(NC(=S)N1CCN(c2ccccc2)CC1)c1ccco1	inconclusive: 21.1%
N#Cc1ccccc1COC(=O)c1ccc(Br)o1	inconclusive: 32.1%
